Results of single-concentration screens

Each number is a percent effect as filed.
How 0% and 100% were set is not recorded. Most values in the screen are low, and negative values occur.
Compounds were drawn at random from those tested, without regard to their results.
Two or more numbers in one place are separate tests of the same structure; such repeats can differ widely.

A: 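Phenotypic screen: M. tuberculosis growth, glucose 7H9 medium, 3 days; the read-out is not stated. Compounds at 50 µM. Direction is inferred from retests: higher values go with more growth inhibition. About 69,000 compounds were tested under these conditions; 1.1% (about 760) showed 50% or more at least once.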
B: 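Phenotypic screen: M. tuberculosis growth, cholesterol and DPPC medium, 4 days; the read-out is not stated. Concentration: 50 µM. Direction is inferred from retests: higher values go with more growth inhibition. Of about 69,000 compounds tested this way, about 370 (0.54%) reached 50% or more in at least one test.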

structure: CN(C(=O)c1ncn2c1CN(C)S(=O)(=O)c1ccccc1-2)C1CC1.O=C(O)C(F)(F)F
A: 7.296
B: 16.65

structure: Clc1ccccc1-c1nnc(CNCCn2cccn2)o1
A: 10.07
B: 6.103

structure: CN(Cc1cc(Br)cn1C)C(=O)c1cscn1
A: -8.618
B: -28.41

structure: Cc1nnsc1C(=O)NCc1cccnc1N(C)C
A: 39.09
B: 14.67

structure: O=C(c1cnc(-c2ccco2)s1)N1CCOc2ncccc21
A: -0.4755
B: 32.35 & 9.033

structure: CCc1c(C)nc2n(c1=O)CC(C(=O)NCc1cccs1)CS2 (stereo unspecified)
A: 21.3
B: -3.1

structure: Cn1cc(C2CC(=O)NC23CCN(Cc2ccncc2)CC3)cn1.O=C(O)C(F)(F)F.O=C(O)C(F)(F)F (stereo unspecified)
A: -40.14
B: -25.38

structure: Cn1nc2c(cc1=O)CN(CC1CCCCO1)CC2 (stereo unspecified)
A: -2.564
B: 0.06834

structure: COc1cc(CN(C)CCc2ccncc2)c(SC)cc1OC
A: 8.611 & 7.821
B: 15.98

structure: CCOC(=O)CC(NC(=O)c1cn(Cc2ccccc2F)nn1)C(C)C (stereo unspecified)
A: 29.44
B: 1.351

structure: Cc1noc(C2CCN(C(=O)CCc3nccs3)CC2)n1
A: 23.79
B: 11.77

structure: CC(C)(C)CCCC(=O)Nc1ccnn1C1CCS(=O)(=O)C1 (stereo unspecified)
A: -30.84
B: -17.17

structure: N#Cc1ccc(C(=O)N2CCC(Oc3ccc(C#N)cn3)CC2)cc1
A: 1.684
B: 15.3

structure: NC(=O)CCC1CCCN(c2ncnc3c2Cc2ccccc2OC3)C1 (stereo unspecified)
A: -9.958 & 0.7095
B: 10.21

structure: CCOCC1CN(C(=O)N2CCCC2)Cc2cnn(CC)c21 (stereo unspecified)
A: -24.79
B: -19.54

structure: [H][C@]12CCN(C(=O)c3ccco3)[C@@]1([H])CC[C@H](COCC1CCOCC1)O2
A: -12.53 & -9.102
B: -9.238

structure: Cc1n[nH]c(C)c1S(=O)(=O)N(C)Cc1nn(C)c(Cl)c1Cl
A: -9.034
B: -9.749

structure: Cc1ccc(C)c(-n2ncc(C(=O)NCC3COC(C)(C)O3)c2N)c1 (stereo unspecified)
A: -14.62
B: -27.93

structure: CCc1nnc(NCc2cccc(OC)c2OC)o1
A: -44.46
B: -18.46

structure: O=C(NS(=O)(=O)Cc1ccon1)c1ccsc1
A: -12.92
B: -3.765

structure: CN(C1CCCC1)C(C)(C)C(=O)NCCNC(N)=O
A: 0.07248
B: -2.472

structure: CN(C)C(=O)N1CCn2nc(CNC(=O)CCC(F)(F)F)cc2C1
A: 13.2 & -1.159
B: -7.354

structure: Cc1c(Cn2cc(Cl)c(N)n2)cnn1C
A: 35.01
B: 13.88

structure: [H][C@@]12CN(CC3CCC3)C[C@]1(C(=O)O)CN(c1cnccn1)C2
A: 3.895
B: 15.63

structure: CCc1cnc(C)nc1NCCN1CCC(O)CC1
A: -7.716 & -14.52
B: -38.76

structure: c1ccc(Oc2cccc(OC34CCCN(CC3)C4)c2)cc1 (stereo unspecified)
A: 86.07 & 83.36
B: 98.66

structure: Cc1cc(Oc2ccccc2C)nc(C2CCCN2)n1 (stereo unspecified)
A: -0.4946
B: -11.63

structure: O=C1c2cccnc2OC(CN2CCOCC2)CN1Cc1cccs1 (stereo unspecified)
A: -12.3
B: -12.79

Data taken from ChEMBL document CHEMBL3988442, “University of Dundee, Small-Polar-MMV Screening Library” (2021).